Source: publication PMC10163288
This is one part of the list.

B1: il2ra_site1_3nfp_normal_mot_40e86e4e32a25ee6cbb7392bdf050625_0001_1_000000004_0001_1_15_H_._HHH_b1_06407_af2_0001_0000100001_0000001_0 (protein)
chain: SSSSSSEEATELFKQVKELLKEGDKEEIEKILERLKELAEELNDPLLERLVRQYEEALKRRSSSS
B2: il2ra_site1_1z92_sap_13_mot_HHH_b1_07624_af2_000000183_0001_1_21_H_._HHH_b2_06189_0001_0000100001_0000001_1_0001 (protein)
chain: SSSSTDEAARIVLRIVNEVARKFNLSDEEFLELLRLADELLIKGYSEEEIKEILEELAEKSSSSS
B3: il2ra_site2_2erj_sap_17_mot_HHH_b2_05720_000000165_0001_1_18_H_._HHH_b2_07625_af2_0001_0000700024_0000001_0_0001 (protein)
chain: SSSSSDEEEREAERITEEIEERIDDPEERLREFFRVAVELLREGDPRTAHILLRLAQEGSSSSSS
B4: il2ra_site1_1z92_normal_mot_30aa582283ecb64a35315be28fff3e94_0001_000000110_0001_35_49_H_._HHH_b2_06812_0001_0000100001_0000001_0_af2pred_0001_af2pred_1 (protein)
chain: SSSSSLERAARRLVEDAVRMAGLSEEEQKELEELAERLVEEGVSALEIAKILEKFVRELLSSSSS
B5: il2ra_site2_3nfp_sap_17_mot_HHH_b2_02902_af2_000000043_0001_44_57_H_._85951a6590fc85ab439bb9084ebbbcb9_0001_0001_0000300012_0000001_0_0001 (protein)
chain: SSSSDEERREAEELFEELQELLEENDKFEVMQVLVKLFELASETGDEEAAELVIKIYKQALSSSS
B6: il2ra_site2_3nfp_normal_mot_HHH_b2_02437_000000052_0001_42_56_H_._HHH_b2_00069_af2_0001_0000300011_0000001_0 (protein)
chain: SSSSSDEEVQERVKELLEEAEKTSDPEERERLLAEATQLAYELRDSELFYLIAEVLYELGSSSSS
B7: il2ra_site2_3nfp_sap_16_mot_HHH_b2_07498_000000057_0001_1_14_H_._HHH_b1_00658_0001_0001300048_0000001_0_0001 (protein)
chain: SDEKAELANEAAQIALRLSKSPDPEDARVALEIYKLLREAYEVPDEEESKEILEEAVELARRYSS
B8: il2ra_site1_2b5i_normal_mot_517d2b11c41c928dd1a3662be3bb3df0_0001_000000298_0001_37_51_H_._HHH_b1_05252_af2_0001_0000300021_0000001_0_af2pred_dldesign_0_af2pred (protein)
chain: SSSSPEEEFHRLADEIDDLVAAGRLDEARALLAELQALAEAMKDPKLIKFARDRARYLERRESSS
B9: il2ra_site2_2erj_sap_19_mot_HHH_b2_03015_000000099_0001_44_57_H_._HHH_b2_04873_0001_0000200010_0000001_0_0001_af2pred_0001_1_af2pred_swapped (protein)
chain: SSSSSEELAKFTQEVAREADELAENGNPEEARRVLEEAREFLKEHGNKNLIRNVERELKRISSSS
B10: il2ra_site2_2erj_normal_mot_HHH_b1_02757_000000121_0001_41_57_H_._HHH_b1_08327_0001_0000300020_0000001_0_af2pred_0001_1_af2pred_swapped (protein)
chain: SSSSSSDHEEEVERLLEEAKHVPDIREALKLLRQAAQIAIRNDNEELFELVTEVLRRSSSSSSSS
B11: il2ra_site1_1z92_normal_mot_HHH_b2_05373_af2_000000032_0001_24_40_H_._66959ead3e6c57cb3ef8243f3eb758e0_0001_1_af2_0001_0000200020_0000001_0_af2pred_0001_af2pred (protein)
chain: SLAEEDLEEAVEKNDEELLRRFIELLLKDVGDPELVRQLLKQLVKRLGLPPEVLERLRELLEELT
B12: il2ra_site2_2erj_sap_26_mot_HHH_b2_02430_000000062_0001_23_40_H_._HHH_b1_08172_af2_0001_0000400031_0000001_0_0001 (protein)
chain: SSSSDKLRRLYELANELLHLVSRGDEERFEEVAEEVRELVEELNSDTAREVLEVLERLIKSSSSS
B13: il2ra_site1_1z92_sap_19_mot_HEEHE_1462_000000005_0001_40_55_H_._2ec892f5ef7028bbd55197b25474b143_0001_0001_0000100004_0000001_0_0001_af2pred_0001_af2pred (protein)
chain: SSSSDERKEANARIVVELAVRTANLSEEDREELEELAEELVKRGVSWEELARILDEIANKLSSSS
B14: il2ra_site1_2b5i_normal_mot_22370d59370c406a0c205a431f537cfa_0001_af2_000000141_0001_1_31_H_._HHH_b1_03885_0001_0000200019_0000001_0 (protein)
chain: SSSDEEERTRLAVEIVWRLRYEYNLSNEDARLLNRLAAELVDEGVSEEEIEEILRRLAEELSSSS
B15: il2ra_site1_2b5i_sap_13_mot_HHH_b1_00095_000000044_0001_1_14_H_._0f91de3147d923573a0621cd0b52f718_0001_1_0001_0000400021_0000001_0_0001_af2pred_dldesign_0_af2pr … (protein)
chain: SSSSSPRVRGLLERVLDLRAAGDAEALAALREEIEAALAEATDPEDRRLLRLALRAARRPPSSSS
B16: il2ra_site2_3nfp_normal_mot_HHH_b1_01964_000000000_0001_19_36_H_._HHH_b1_03031_0001_0000500024_0000001_0_af2pred_0001_af2pred (protein)
chain: SSSSSDEELLQEAKELLEEGNLEEARRVLARAAALAIELGDEELAHEIASLAIRVAELLGSSSSS
B17: il2ra_site1_3nfp_normal_mot_HHH_b1_03195_af2_000000163_0001_42_58_H_._HHH_b2_02212_af2_0001_0000200016_0000001_0 (protein)
chain: SSSSDERHRANRLLKELIEAAKEGDEELIRQLEEEIKELAERANDERLERLLKQLEELLGSSSSS
B18: il2ra_site2_2erj_normal_mot_HHH_b2_02154_af2_000000141_0001_43_57_H_._HEEHE_3044_0001_0000500024_0000001_0_af2pred_0001_1_af2pred_swapped (protein)
chain: DDALSFEVLVELVAKMAGVPSVTVEYSNGQYHVELEGDNEALEHAALLVRSAAEAQDLDVEVETE
B19: il2ra_site2_2erj_sap_15_mot_HHH_b1_05208_000000212_0001_43_57_H_._HHH_b2_03262_0001_0000200008_0000001_0_0001 (protein)
chain: SSSSSDELRRAYELAVILLHLVARNDREEFEEISEEFRELVERLNSDNARENLEQLERQLSSSSS

The binders below were run against il2ra, P01589 (assay: yeast display titration).

Apparent Kd, inactive:
B1 no binding seen
B2 no binding seen
B3 no binding seen
B4 no binding seen
B5 no binding seen
B6 no binding seen
B7 no binding seen
B8 no binding seen
B9 no binding seen
B10 no binding seen
B11 no binding seen
B12 no binding seen
B13 no binding seen
B14 no binding seen
B15 no binding seen
B16 no binding seen
B17 no binding seen
B18 no binding seen
B19 no binding seen

For reference, part of the list above.
Apparent Kd, inactive:
B12 no binding seen
B13 no binding seen
